# Laboratory results reported in PubChem BioAssay AID1508600 (Functional Genomics Laboratory (NCATS/FGL), 2020).
# About 3,700 (7%) of roughly 53,000 sequences were called active.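 Rule for the calls: active = gene knockdowns whose robust z-score for IL-1 alpha signal is at least 2 or at most -2, so actives lie on both sides; inactive = the rest.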 Some of the results follow.
# Assay: Components of the Cytosolic LPS Sensing Pathway: Gene Identification via Genome-wide siRNA Screen;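 note: robust z of the log signal after scaling to non-targeting control siRNA wells of the plate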
# Details: RAW264.7 macrophages, IL-1a HTRF, actives lie on both sides, screened at 100 nM (by protocol), cells primed 5 h with Pam3CSK4 first
# Summary of the method: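 Cells (RAW264.7, 1×10^4 per well) were transfected with siRNA at 100 nM and cultured 48h at 37 degrees C. Pam3CSK4 was added for 5 hours; LipidA transfection followed for 24 hour. IL-1a was then measured by HTRF.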
row,Sequence,z-score
1,CCUUUUACUCUAACGGACUTT against 4921507P07Rik,inactive: -0.875
2,GCAUUGAUGUGAUUGAACCTT against Plxnb3,inactive: -0.108
3,GCCGUGUGGUAAUAGUGUCTT against Dhrs13,inactive: 0.442
4,CGAUCUUAACUCAUUCUUUTT against Dbx2,inactive: 0.532
5,GCACUUUGUAUGUCUAUCUTT against Tnfaip1,active: 2.28
6,GGAAGAUGUUUUCAGACUCTT against Polm,inactive: -1.29
7,GGCACUACUUCUAUCGUAGTT against Repin1,inactive: -0.608
8,GGUGUUCCAGGUUAAAAUCTT against Poglut2,inactive: -0.617
9,GCUGCUGGAAACUAGACUGTT against Cyp2b13,inactive: -1.71
10,GGCCCUCUACAAUAUCGUCTT against Vac14,inactive: 1.03
11,GGGUUCAAUAACCACAUCATT against Ttc13,active: -2.13
12,GCCAGAACUGAUCGAAAUGTT against Myh2,inactive: 0.314
13,GGCAUCGUCUGCACAAAGATT against Fbn2,inactive: -0.0226
14,GGCCUUGAUGGUGAAGAUGTT against Vstm4,inactive: -1.79
15,GGAAGGAUGCUUCCUUGGATT against Stmn3,inactive: 0.00806
16,GCUAAAGCAAUACAUAGUUTT against Nav2,inactive: -0.113
17,GGGCAUGAAGAUCAAGAAGTT against Zfp608,inactive: -0.147
18,GCUUAUUGUUCAACCCAACTT against Dpp3,inactive: -0.362
19,CGAUGUCUGAGUUCAACACTT against Gclc,inactive: -0.124
20,GAACAAUGCAGAGACAAUUTT against Olfr176,inactive: -0.441
21,GCUCUUCAACGAUUGUGGGTT against Clcn4,inactive: -0.481
22,CCACUAAAAUCUUACUGGATT against Scn7a,inactive: 0.671
23,GGCGAUUAUGGAAAAAUGUTT against Osbpl11,inactive: -0.431
24,GGAUCUAGAACAGAAAAUGTT against Stat3,inactive: -1.55
25,CCUUACAUGUUGACUACCCTT against Rnase13,inactive: 0.403
26,GGUAUUCGAAGCAUACAAUTT against Pdha2,active: 3.47

row,Sequence,z-score
1,GGAGGAAGAGAACUUCGUGTT against Fstl3,inactive: -0.648
2,GCAGUAUGGCUACCUACCUTT against Mmp14,inactive: -1.08
3,GGGAAUACGUGUACUGAAGTT against Ttc17,inactive: -0.338
4,GCAGAACUUGACCACUGCCTT against Defb2,active: 2.58
5,CCGACUCUAACUGUGUCAGTT against Plekhn1,inactive: -1.6
6,GGCCAACUGCCAAUUUGUGTT against Rnf10,inactive: -1.4
7,GGAAUCAAAAUCUUUGAUGTT against Dab1,inactive: 0.021
8,GGUGCUACAGAACGUAUGCTT against Fh1,inactive: -0.764
9,GGAAUUCAGCUUAAAACUGTT against Ctsl,inactive: -0.221
10,CCCUUCAACUACAUGUUUUTT against Aicda,inactive: -0.295
11,GCAAUCCAUACAAGCUGUATT against Olfr1134,inactive: 1.27
12,GCUGCGACAAUUCAAUAUCTT against Rdh8,inactive: -0.14
13,GGGAAUUAUGGGCUUACCGTT against 4931414P19Rik,inactive: -0.414
14,GGAACUUGAUCCUCAAUUUTT against Tomm6,inactive: 0.668
15,GGAUUUGGAAAUAUUAGAGTT against E330021D16Rik,inactive: 1.47
16,GGGUUGGAUAGAAUAUUGUTT against Xk,inactive: 1.4
17,GCUAGAUGUAGAUAGAUAATT against Plekhm3,inactive: -0.569
18,GGUUCAGAAGAGCUGAUGATT against Ezh2,inactive: -1.84
19,GGCUAGCUGCCCUUGUAUATT against Tmem128,inactive: -0.894
20,GGCAGAUCUAUUUAUGGUATT against Ccer1,inactive: 0.229
21,GGCAAUCAGGACGUAAAGUTT against Uhmk1,inactive: -1.75
22,GGUAGUCUUGACCCAAAAGTT against Gpr173,inactive: -1.18
23,CGAUAAAGGCCAAAUACUGTT against Ssb,inactive: 0.616
24,GGAUGAGUACACCUUUGUGTT against Chdh,inactive: 0.96
25,GGCUUAAUGUUGCUUCAGATT against Aven,inactive: -0.959
26,GCUGAUCCGAUACAUCGACTT against Cuedc2,inactive: 1.21

# An excerpt of these results, as tab-separated lines.
row	Sequence	z-score
1	GGAGGAAGAGAACUUCGUGTT against Fstl3	inactive: -0.648
2	GCAGUAUGGCUACCUACCUTT against Mmp14	inactive: -1.08
3	GGGAAUACGUGUACUGAAGTT against Ttc17	inactive: -0.338
4	GCAGAACUUGACCACUGCCTT against Defb2	active: 2.58
5	CCGACUCUAACUGUGUCAGTT against Plekhn1	inactive: -1.6
6	GGCCAACUGCCAAUUUGUGTT against Rnf10	inactive: -1.4
7	GGAAUCAAAAUCUUUGAUGTT against Dab1	inactive: 0.021
8	GGUGCUACAGAACGUAUGCTT against Fh1	inactive: -0.764
9	GGAAUUCAGCUUAAAACUGTT against Ctsl	inactive: -0.221
10	CCCUUCAACUACAUGUUUUTT against Aicda	inactive: -0.295
11	GCAAUCCAUACAAGCUGUATT against Olfr1134	inactive: 1.27
12	GCUGCGACAAUUCAAUAUCTT against Rdh8	inactive: -0.14
13	GGGAAUUAUGGGCUUACCGTT against 4931414P19Rik	inactive: -0.414
14	GGAACUUGAUCCUCAAUUUTT against Tomm6	inactive: 0.668
15	GGAUUUGGAAAUAUUAGAGTT against E330021D16Rik	inactive: 1.47
16	GGGUUGGAUAGAAUAUUGUTT against Xk	inactive: 1.4
17	GCUAGAUGUAGAUAGAUAATT against Plekhm3	inactive: -0.569
18	GGUUCAGAAGAGCUGAUGATT against Ezh2	inactive: -1.84
19	GGCUAGCUGCCCUUGUAUATT against Tmem128	inactive: -0.894
20	GGCAGAUCUAUUUAUGGUATT against Ccer1	inactive: 0.229
21	GGCAAUCAGGACGUAAAGUTT against Uhmk1	inactive: -1.75
22	GGUAGUCUUGACCCAAAAGTT against Gpr173	inactive: -1.18

# (cont.)

row,Sequence,z-score
1,GCCCUGAGUGGUUCAAUAATT against Tmem242,inactive: -0.176
2,GGAAAAUUCCAGAAACCAUTT against Mettl8,inactive: 0.608
3,GGAACGAAUGUUCUUCGGUTT against Dst,inactive: 0.378
4,GCGCAUACGAUAUGUGACCTT against H2-Ab1,inactive: -0.311
5,CCUUGUAACUGAGGCCCGATT against Olfr120,inactive: 1.2
6,GGCCACAGGAAGUCAGUUATT against Gsk3b,inactive: -1.23
7,GGAUCAGUAGCAUUAACAATT against Tcf7l2,inactive: 0.414
8,GGCCUUUUAUUAGUGAGGGTT against 4932435O22Rik,inactive: -1.92
9,GGACACUUCCAAUGAGUCCTT against Chrm4,inactive: -0.869
10,GGGUUCAGCAAUUUCAGCATT against Zbtb49,inactive: -0.629
11,CCGACAUUCGAGUUUUGCGTT against Rrp9,inactive: -0.532
12,GGAUCUCCUAAGUGUUCCCTT against Pnpo,inactive: 1.58
13,CCUCAAGAUAAACCGACAATT against Bard1,inactive: 0.388
14,GCGGGCUGAAGAAGAAUUGTT against Ppp1r12c,inactive: 0.0887
15,CCGACAUGUGGACAAAUGATT against Tas2r117,inactive: -1.62
16,CCUUACCACAGCCUCAAUGTT against Elfn2,inactive: -0.227
17,GGGAAAAUACACUAUUUGATT against Atad2b,inactive: 0.223
18,GGCUCUUCCGAGAACAUCCTT against Kcne4,inactive: -0.132
19,GGGACAUGGACAAUAAACCTT against Wnt10a,inactive: -0.346
20,GGCUGAUAAGGCUAAGUACTT against Fam110a,inactive: -0.121
21,GGGCAUGCGGAUCUUCUUATT against Sbp,inactive: -0.474
22,GGAUGUGCUAAUGAGGCCATT against Tjp3,inactive: -0.228
23,GGAACACAGAGAAUGGCUCTT against Rnf126,inactive: 1.02
24,GGGAUCCCGCAAAAUCAGATT against Osm,inactive: 0.63
25,GGAGCUUAGCCUCUGUAUGTT against Gatd3a,inactive: -0.86
